Data reported in patent US20160340732A1, “COMPOSITIONS AND METHODS FOR DIAGNOSING AND TREATING NUCLEOTIDE REPEAT DISORDERS” (University of Virginia Patent Foundation, priority 2015, published 2016).
At least one compound was matched to its structure with a doubt left.

What was measured:
[1] = small studies, patients not stratified by genetic lesion; cited from earlier work
miR-762 = miR-762 levels in cells exposed to HDAC inhibitors; type: cell-based; conditions: mouse C2C12 cells, valproate 1 mM vs H2O, 48 hours (FIG. 8)
Method: Epigenetic drugs increasing expression of miR-15 family members levels or miR762 are anticipated to have therapeutic potential. Importantly, these drugs are generally safe, and could influence NRDs even with small changes in miR levels. No regulators of miR-762 have been published, so whether candidate drugs might alter miR-762 levels in vitro were assessed. Cells were exposed to vehicle, trichostatin A (TSA, an HDAC inhibitor and antifungal agent), and valproate (an epilepsy drug, mood stabilizer, and weaker HDAC inhibitor). TSA increased miR-762 levels 65-fold (FIG. 7).

CCCC(CCC)C(=O)O [Valproate, valproate]
effect in patients with FTD [1]: beneficial effect
effect on miR-762 levels (miR-762): modest but significant effect
